Differences between knockout arms are mostly noise.
Tested on: HCC-38
Experiment: relative cell number vs DMSO control (72 h) (% of DMSO); higher = less growth inhibition (more cells)
Description: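 QMAP-Seq: a pool of 5 breast cancer cell lines (ZR-75-1, SKBR3, HCC-38, MDA-MB-231, BT-20), each carrying 12 doxycycline-inducible Cas9 sgRNA perturbations (11 knockouts plus non-targeting sgNT), was treated with compounds for 72 h at four 10-fold doses (10 nM-10 uM or 1 nM-1 uM range). Barcodes were amplified and sequenced, and cell number was interpolated from 293T spike-in standard curves. The result is expressed as % of the median of DMSO wells. Two biological replicates.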

C[C@@H]1CN(CC(=O)Nc2ccc3c(c2)Cc2cccc(-c4cc(=O)cc(N5CCOCC5)o4)c2S3)C[C@H](C)O1
Conditions | relative cell number
sgRNA knockout: sgATF3, 10 nM | 94.589
sgRNA knockout: sgATF3, 100 nM | 116
sgRNA knockout: sgATF3, 1000 nM | 85
sgRNA knockout: sgATF3, 10000 nM | 59.2
sgRNA knockout: sgATF4, 10 nM | 89.4
sgRNA knockout: sgATF4, 100 nM | 109
sgRNA knockout: sgATF4, 1000 nM | 77.68
sgRNA knockout: sgATF4, 10000 nM | 70.5
sgRNA knockout: sgATF6, 10 nM | 97.2
sgRNA knockout: sgATF6, 100 nM | 106
sgRNA knockout: sgATF6, 1000 nM | 93.3
sgRNA knockout: sgATF6, 10000 nM | 57.3
sgRNA knockout: sgATG7, 10 nM | 91.6
sgRNA knockout: sgATG7, 100 nM | 112
sgRNA knockout: sgATG7, 1000 nM | 76.3
sgRNA knockout: sgATG7, 10000 nM | 69.9
sgRNA knockout: sgERN1, 10 nM | 89.1
sgRNA knockout: sgERN1, 100 nM | 102
sgRNA knockout: sgERN1, 1000 nM | 89
sgRNA knockout: sgERN1, 10000 nM | 56.26
sgRNA knockout: sgHSF1, 10 nM | 110
sgRNA knockout: sgHSF1, 100 nM | 88.2
sgRNA knockout: sgHSF1, 1000 nM | 87.2
sgRNA knockout: sgHSF1, 10000 nM | 48.9
sgRNA knockout: sgHSF2, 10 nM | 100
sgRNA knockout: sgHSF2, 100 nM | 104
sgRNA knockout: sgHSF2, 1000 nM | 88.98
sgRNA knockout: sgHSF2, 10000 nM | 62.1
sgRNA knockout: sgKEAP1, 10 nM | 97.4
sgRNA knockout: sgKEAP1, 100 nM | 99.3
sgRNA knockout: sgKEAP1, 1000 nM | 108
sgRNA knockout: sgKEAP1, 10000 nM | 47.3
sgRNA knockout: sgNFE2L2, 10 nM | 98.7
sgRNA knockout: sgNFE2L2, 100 nM | 110
sgRNA knockout: sgNFE2L2, 1000 nM | 70.5
sgRNA knockout: sgNFE2L2, 10000 nM | 67.5
sgRNA knockout: sgSLC35F2, 10 nM | 94.9
sgRNA knockout: sgSLC35F2, 100 nM | 106
sgRNA knockout: sgSLC35F2, 1000 nM | 81.6
sgRNA knockout: sgSLC35F2, 10000 nM | 63.5
sgRNA knockout: sgXBP1, 10 nM | 100
sgRNA knockout: sgXBP1, 100 nM | 112
sgRNA knockout: sgXBP1, 1000 nM | 78.1
sgRNA knockout: sgXBP1, 10000 nM | 69.9

Cc1[nH]c(/C=C2\C(=O)Nc3ccc(S(=O)(=O)N(C)c4cccc(Cl)c4)cc32)c(C)c1C(=O)N1CCN(C)CC1
Conditions | relative cell number
sgRNA knockout: sgATF3, 10 nM | 101
sgRNA knockout: sgATF3, 100 nM | 96.8
sgRNA knockout: sgATF3, 1000 nM | 85
sgRNA knockout: sgATF3, 10000 nM | 62.3
sgRNA knockout: sgATF4, 10 nM | 102
sgRNA knockout: sgATF4, 100 nM | 109
sgRNA knockout: sgATF4, 1000 nM | 83.1
sgRNA knockout: sgATF4, 10000 nM | 62.9
sgRNA knockout: sgATF6, 10 nM | 89.3
sgRNA knockout: sgATF6, 100 nM | 104
sgRNA knockout: sgATF6, 1000 nM | 81.2
sgRNA knockout: sgATF6, 10000 nM | 64.9
sgRNA knockout: sgATG7, 10 nM | 101
sgRNA knockout: sgATG7, 100 nM | 96.6
sgRNA knockout: sgATG7, 1000 nM | 90.4
sgRNA knockout: sgATG7, 10000 nM | 71.1
sgRNA knockout: sgERN1, 10 nM | 107
sgRNA knockout: sgERN1, 100 nM | 98.4
sgRNA knockout: sgERN1, 1000 nM | 84.9
sgRNA knockout: sgERN1, 10000 nM | 59
sgRNA knockout: sgHSF1, 10 nM | 87.3
sgRNA knockout: sgHSF1, 100 nM | 94.5
sgRNA knockout: sgHSF1, 1000 nM | 87.6
sgRNA knockout: sgHSF1, 10000 nM | 86.4
sgRNA knockout: sgHSF2, 10 nM | 100
sgRNA knockout: sgHSF2, 100 nM | 116
sgRNA knockout: sgHSF2, 1000 nM | 96.6
sgRNA knockout: sgHSF2, 10000 nM | 57.23
sgRNA knockout: sgKEAP1, 10 nM | 104
sgRNA knockout: sgKEAP1, 100 nM | 102
sgRNA knockout: sgKEAP1, 1000 nM | 90.8
sgRNA knockout: sgKEAP1, 10000 nM | 71.9
sgRNA knockout: sgNFE2L2, 10 nM | 103
sgRNA knockout: sgNFE2L2, 100 nM | 101.92
sgRNA knockout: sgNFE2L2, 1000 nM | 84.5
sgRNA knockout: sgNFE2L2, 10000 nM | 65.5
sgRNA knockout: sgSLC35F2, 10 nM | 104
sgRNA knockout: sgSLC35F2, 100 nM | 92.3
sgRNA knockout: sgSLC35F2, 1000 nM | 86.5
sgRNA knockout: sgSLC35F2, 10000 nM | 58.5
sgRNA knockout: sgXBP1, 10 nM | 97.9
sgRNA knockout: sgXBP1, 100 nM | 99.7
sgRNA knockout: sgXBP1, 1000 nM | 88.3
sgRNA knockout: sgXBP1, 10000 nM | 67.5

OCc1ccc(-c2ccc(-c3ccc(CO)s3)o2)s1
Conditions | relative cell number
sgRNA knockout: sgATF3, 10 nM | 137
sgRNA knockout: sgATF3, 100 nM | 120
sgRNA knockout: sgATF3, 1000 nM | 122
sgRNA knockout: sgATF3, 10000 nM | 65.5
sgRNA knockout: sgATF4, 10 nM | 131
sgRNA knockout: sgATF4, 100 nM | 120
sgRNA knockout: sgATF4, 1000 nM | 113
sgRNA knockout: sgATF4, 10000 nM | 69.6
sgRNA knockout: sgATF6, 10 nM | 163
sgRNA knockout: sgATF6, 100 nM | 129
sgRNA knockout: sgATF6, 1000 nM | 135
sgRNA knockout: sgATF6, 10000 nM | 65.3
sgRNA knockout: sgATG7, 10 nM | 123
sgRNA knockout: sgATG7, 100 nM | 119
sgRNA knockout: sgATG7, 1000 nM | 123
sgRNA knockout: sgATG7, 10000 nM | 66.7
sgRNA knockout: sgERN1, 10 nM | 129
sgRNA knockout: sgERN1, 100 nM | 116
sgRNA knockout: sgERN1, 1000 nM | 112
sgRNA knockout: sgERN1, 10000 nM | 66.3
sgRNA knockout: sgHSF1, 10 nM | 167
sgRNA knockout: sgHSF1, 100 nM | 128
sgRNA knockout: sgHSF1, 1000 nM | 117
sgRNA knockout: sgHSF1, 10000 nM | 58.6
sgRNA knockout: sgHSF2, 10 nM | 135
sgRNA knockout: sgHSF2, 100 nM | 125
sgRNA knockout: sgHSF2, 1000 nM | 106
sgRNA knockout: sgHSF2, 10000 nM | 70.4
sgRNA knockout: sgKEAP1, 10 nM | 198
sgRNA knockout: sgKEAP1, 100 nM | 120
sgRNA knockout: sgKEAP1, 1000 nM | 137
sgRNA knockout: sgKEAP1, 10000 nM | 67.5
sgRNA knockout: sgNFE2L2, 10 nM | 121
sgRNA knockout: sgNFE2L2, 100 nM | 122
sgRNA knockout: sgNFE2L2, 1000 nM | 114
sgRNA knockout: sgNFE2L2, 10000 nM | 66.4
sgRNA knockout: sgSLC35F2, 10 nM | 131
sgRNA knockout: sgSLC35F2, 100 nM | 114
sgRNA knockout: sgSLC35F2, 1000 nM | 112
sgRNA knockout: sgSLC35F2, 10000 nM | 65.6
sgRNA knockout: sgXBP1, 10 nM | 122
sgRNA knockout: sgXBP1, 100 nM | 118
sgRNA knockout: sgXBP1, 1000 nM | 110
sgRNA knockout: sgXBP1, 10000 nM | 61

— the supplement of paper PMC7661543
